Results on four substances are retold here after article PMC4868535, “A G-protein activation cascade from Arl13B to Arl3 and implications for ciliary targeting of lipidated proteins” (eLife, 2015).

By UniProt entry, the sequences of proteins in these tests, tags left out. Where a name states a change or a piece, a line headed by the entry shows the natural chain unless it says otherwise. Chains listed by the source or under a name are the forms on record and can include a tag or linker. Residues count along the entry.
UniProt Q9WUL7: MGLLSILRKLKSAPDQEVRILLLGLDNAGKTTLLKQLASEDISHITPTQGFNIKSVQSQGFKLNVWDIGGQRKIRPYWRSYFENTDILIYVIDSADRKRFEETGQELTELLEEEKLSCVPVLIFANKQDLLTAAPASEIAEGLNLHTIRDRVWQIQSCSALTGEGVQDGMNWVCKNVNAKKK
Arl3△N^D129N (murine Arl3 residues 17–182, D129N) (Q9WUL7, form named): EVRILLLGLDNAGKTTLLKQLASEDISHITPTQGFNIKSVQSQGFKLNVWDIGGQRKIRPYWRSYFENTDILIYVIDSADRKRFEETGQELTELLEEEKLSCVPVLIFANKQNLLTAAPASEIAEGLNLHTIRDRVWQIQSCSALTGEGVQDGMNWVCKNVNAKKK
Arl2△N^D128N (murine Arl2 residues 17–184, D128N) (Q9D0J4, form named): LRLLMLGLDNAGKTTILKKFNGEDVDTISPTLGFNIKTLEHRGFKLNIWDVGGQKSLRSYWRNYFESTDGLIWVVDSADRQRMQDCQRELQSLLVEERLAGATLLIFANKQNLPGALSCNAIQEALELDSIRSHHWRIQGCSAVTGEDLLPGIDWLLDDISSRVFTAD
UniProt Q640N2, residues 1-270: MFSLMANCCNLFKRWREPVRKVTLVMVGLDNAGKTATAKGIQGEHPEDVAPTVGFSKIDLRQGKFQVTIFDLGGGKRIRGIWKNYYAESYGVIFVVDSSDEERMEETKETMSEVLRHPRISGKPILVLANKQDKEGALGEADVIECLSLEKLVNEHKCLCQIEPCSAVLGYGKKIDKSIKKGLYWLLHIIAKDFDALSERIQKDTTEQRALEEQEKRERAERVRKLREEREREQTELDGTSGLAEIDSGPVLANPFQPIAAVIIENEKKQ
UniProt P36405: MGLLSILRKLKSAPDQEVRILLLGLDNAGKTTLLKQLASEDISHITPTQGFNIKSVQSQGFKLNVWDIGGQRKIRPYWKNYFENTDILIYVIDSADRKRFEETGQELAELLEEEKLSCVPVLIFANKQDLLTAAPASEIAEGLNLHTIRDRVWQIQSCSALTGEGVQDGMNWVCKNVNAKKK

The target in one assay is GST-PDE6δ (UniProt O43924). The assay is described as follows: pull-down; 50 µg GST-PDE6δ on 50 µl glutathione agarose, cleared lysates of HEK293 or IMCD3 cells (with or without overexpressed Arl13B-GFP, serum withdrawn 30 hr), 45 min at 4°C; immunoblot with anti-Arl3 or anti-Flag; only the target purified. In general terms: Immunoblotting shows a protein as a band on a membrane.

Assay [1] deals with Arl3△N^D129N (murine Arl3 residues 17–182, D129N) (mouse) (UniProt Q9WUL7). The assay is described as follows: two-hybrid; library screens: mouse retina cDNA library in pGADT7 (S. cerevisiae Y187) against pBD-Gal4 baits (S. cerevisiae AH109); growth on selective media.
In assay [2] the target is T1, Arl6△N^D133N (murine Arl6 residues 16–186, D133N) (mouse) (UniProt O88848).
T1 sequence: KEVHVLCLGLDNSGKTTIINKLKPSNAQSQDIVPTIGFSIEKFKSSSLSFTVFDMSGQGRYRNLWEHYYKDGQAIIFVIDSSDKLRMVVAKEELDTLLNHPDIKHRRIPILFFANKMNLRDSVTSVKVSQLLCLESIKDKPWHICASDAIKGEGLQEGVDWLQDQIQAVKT
In words: two-hybrid; directed 1:1 test of pBD baits with pAD preys; mated cells on -Leu -Trp, high stringency plates (-Leu -Trp -His -Ade) and β-galactosidase filter assay.

The target in assay [3] is Arl2△N^D128N (murine Arl2 residues 17–184, D128N) (mouse) (UniProt Q9D0J4). The assay is described as above.
Assay [4] deals with Arl3△N^D129N (murine Arl3 residues 17–182, D129N) (mouse) (UniProt Q9WUL7). The description is as above.

These are yes or no findings as the source states them, for the method shown. For some of these results: In cells and extracts the contact can be indirect. Some results given as binding are weak or reduced against the parent protein; the word gives no strength.

As for Arl3-Flag (from UniProt Q9WUL7 1-182), the binding entry with GST-PDE6δ is given as “binds”.

As to “Arl13B (residues 1–270) (from UniProt Q640N2 1-270) (domain or fragment)”, the binding entry in assay [1] is “binds”; in assay [2] it was “no binding”; in assay [3], “no binding”; in assay [4], “binds”. “endogenous Arl3 (HEK293) (from UniProt P36405 1-182)”: in the assay with GST-PDE6δ, the binding entry is recorded as “binds”. Take “endogenous Arl3 (IMCD3) (from UniProt Q9WUL7 1-182)”: the binding entry with GST-PDE6δ was “binds”.
